Binding data for 1 molecule are collected here from patent publication US20110189284A1, “Peptide Fibres” (UNIVERSITY OF BRISTOL, priority 2009, published 2011).

The target of this experiment is T1, hSAFAAA-W p2.
T1 sequence (peptide): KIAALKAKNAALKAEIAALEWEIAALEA
Briefly: CD, TEM and gel formation of the mixed peptides.

Results are given in words; binding and its absence hold for the method and conditions named. Some entries that bind do so weakly or less than the wild type.

As for KIAALKAKIAALKAEIAALEWENAALEA [hSAFAAA-W p1], the binding result is on record as “binds”.
